Measurements published in patent US11806366B2, “Peptides and combination of peptides for use in immunotherapy against epithelial ovarian cancer and other cancers” (Immatics Biotechnologies GmbH, priority 2015, dated 2023).

system: HLA class II molecules of EOC tissue; experiment: HLA class II ligandome (immunopeptidome) analysis by LC-MS/MS, comparative profiling EOC vs benign tissues; parameters: species or system human; conditions: HLA class II ligands of Her2neu; number of samples per tissue (OvCa, PBMCs, Liver, Kidney); Table 9

Row | Substance | Sources of presentation
1 | 291 (DPSPLQRYSEDPTVPLPS; listed as Homo sapiens) [compound 291] | 1× OvCa
2 | 292 (DPSPLQRYSEDPTVPLPSE; listed as Homo sapiens) [compound 292] | 2× OvCa
3 | 293 (ELVSEFSRMARD; listed as Homo sapiens) [compound 293] | 1× OvCa
4 | 294 (ELVSEFSRMARDPQ; listed as Homo sapiens) [compound 294] | 2× PBMCs
5 | 295 (IPVAIKVLRENTSPKANKE; listed as Homo sapiens) [compound 295] | 2× PBMCs, and 1× Kidney
6 | 296 (RRLLQETELVEPLTPS; listed as Homo sapiens) [compound 296] | 1× OvCa
7 | 297 (SPQPEYVNQPDVRPQPP; listed as Homo sapiens) [compound 297] | 2× Liver
8 | 298 (VKPDLSYMPIWKFPDE; listed as Homo sapiens) [compound 298] | 1× OvCa

system: HLA class I molecules of EOC tissue; experiment: HLA class I ligandome (immunopeptidome) analysis by LC-MS/MS, comparative profiling EOC vs benign tissues; parameters: species or system human; conditions: HLA class I ligands; number of samples per tissue (OvCa, PBMCs, Liver, Kidney); Table 9

Row | Substance | Sources of presentation
9 | 550 (ALLPAVPSL; listed as Homo sapiens) [compound 550] | 1× OvCa
10 | 551 (GRNSFEVRV; listed as Homo sapiens) [compound 551] | 1× PBMC, and 1× Liver, and 1× Kidney, and 1× OvCa
11 | 554 (TYLPTNASLSF; listed as Homo sapiens) [compound 554] | 2× OvCa
12 | 555 (GVFRGIQDV; listed as Homo sapiens) [compound 555] | 2× OvCa
13 | 556 (LMSVYVVEL; listed as Homo sapiens) [compound 556] | 2× PBMCs
14 | 557 (QRNMTKLQL; listed as Homo sapiens) [compound 557] | 2× OvCa, and 1× Liver, and 1× PBMCs

Where “and” joins values, the source holds several entries; their conditions need not be identical. Identical values can stand only once.
